From PubChem BioAssay AID504327 (National Center for Advancing Translational Sciences (NCATS), 2011)
Screen size: about 390,000 compounds; about 820 (0.21%) were called active. The shares of active, inactive and inconclusive entries below differ from those in the screen. Calls come from the whole dose curve; as a rule, active = well fitted inhibition curve with a large enough effect; inconclusive = small, poorly fitted or top-dose-only effect, or another doubt; inactive = no such curve, though single readings can be large or run the other way. Potencies of inconclusive entries are doubtful fits and often do not repeat.

Protein sequences, listed by entry. Tags and fused reporters are not part of them.
UniProt Q92830, whole entry, looked up: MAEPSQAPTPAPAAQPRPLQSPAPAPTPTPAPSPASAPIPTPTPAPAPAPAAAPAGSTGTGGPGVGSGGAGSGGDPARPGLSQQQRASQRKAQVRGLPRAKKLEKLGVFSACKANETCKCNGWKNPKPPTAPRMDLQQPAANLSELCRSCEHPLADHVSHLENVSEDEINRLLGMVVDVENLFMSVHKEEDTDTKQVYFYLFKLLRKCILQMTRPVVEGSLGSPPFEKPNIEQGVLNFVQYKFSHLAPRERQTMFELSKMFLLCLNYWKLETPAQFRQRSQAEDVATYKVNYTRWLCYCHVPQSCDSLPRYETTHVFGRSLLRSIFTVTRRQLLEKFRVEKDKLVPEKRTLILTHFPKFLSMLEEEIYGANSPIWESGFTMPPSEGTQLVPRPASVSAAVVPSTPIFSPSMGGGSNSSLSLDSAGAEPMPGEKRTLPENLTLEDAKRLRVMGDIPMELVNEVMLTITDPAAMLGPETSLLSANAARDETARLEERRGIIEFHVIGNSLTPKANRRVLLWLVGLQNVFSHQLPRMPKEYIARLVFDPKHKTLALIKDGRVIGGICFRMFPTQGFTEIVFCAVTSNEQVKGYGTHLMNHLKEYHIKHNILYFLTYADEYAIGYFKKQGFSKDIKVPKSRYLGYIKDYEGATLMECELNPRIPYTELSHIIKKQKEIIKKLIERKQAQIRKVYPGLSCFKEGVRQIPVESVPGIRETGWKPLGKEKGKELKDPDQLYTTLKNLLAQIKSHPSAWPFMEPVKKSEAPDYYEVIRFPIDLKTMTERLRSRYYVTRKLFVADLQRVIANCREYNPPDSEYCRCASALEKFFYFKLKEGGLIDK

Target: Histone acetyltransferase KAT2A (Homo sapiens) (UniProt Q92830)
Assay: qHTS Assay for Inhibitors of GCN5L2
Details: GCN5L2 HAT assay, ThioGlo1 CoA-SH fluorescence; activity change, negative = inhibition: at 58.9 µM (top of the series) unless noted
Procedure, shortened: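 GCN5L2 (20 nM) in 50mM HEPES pH 7.5, 0.1mM EDTA, 0.01% Tween-20 preincubated 15 min with compounds at room temperature. Reaction started with H3(1-25) 75uM, acetyl-CoA 70uM, ThioGlo1 50uM; CoA-thiol fluorescence (Ex340/Em540) read at 0 and 20 min.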
% is set by controls: 0 for no effect and ±100 for the full control effect; potency is the fitted concentration of half-maximal effect.

Question: How did the Potency turn out when `CSc1ccc(-c2sc(Nc3ccccc3)n[n+]2-c2ccccc2)cc1` was run?
Answer: Its Potency is inconclusive: 0.178 µM [inhibitor, full curve, poor fit].

Question: How did the “activity change, negative = inhibition” value turn out when `COCCNC(=O)CSc1nc2nn(-c3ccccc3)c(=O)c-2c2n1CCCCC2` was run?
Answer: The value was inactive: -0.179%.

Question: `C=CCn1c(=NC(=O)c2ccccc2[N+](=O)[O-])sc2cc(S(C)(=O)=O)ccc21` was tested. Which “activity change, negative = inhibition” value did it give?
Answer: Its value is inactive: -0.349%.

Question: How did the Potency turn out when `COc1cccc(-n2c(SCc3cc(=O)oc4cc(O)c(O)cc34)nc3ccccc3c2=O)c1` was run?
Answer: The Potency was inconclusive: 22.4 µM [inhibitor, single point].

Question: For `COc1cccc(C(=O)Nc2nnc(S(=O)(=O)N3CCCCC3)s2)c1`, which Potency is on record?
Answer: The Potency was inconclusive: 3.16 µM [inhibitor, partial curve].

Question: For `CCOC(=O)Cn1nnnc1CN(Cc1cccs1)Cc1cc2cc(C)cc(C)c2[nH]c1=O`, which “activity change, negative = inhibition” value is on record?
Answer: The value was inactive: -15.7%.

Question: How did the Potency turn out when `COc1ccc(NS(=O)(=O)c2cc3c(cc2C)N(C)CCO3)cc1` was run?
Answer: Its Potency is inconclusive: 39.8 µM [inhibitor, single point].

Question: Which Potency does the source give for `CCOc1cc(C)c(Cl)cc1S(=O)(=O)N(CC)CC` here?
Answer: Its Potency is inconclusive: 22.4 µM [inhibitor, single point].

Question: For `COc1cc(/C=C2\C(=N)N3N=C(N4CCOCC4)SC3=NC2=O)ccc1OC(=O)c1ccccc1`, which “activity change, negative = inhibition” value is on record?
Answer: The value was inactive: -29.7%.

Question: For `CN(CC(=O)Nc1cccc(F)c1)C(=O)Cn1cnc2c1c(=O)n(C)c(=O)n2C`, which Potency is on record?
Answer: Its Potency is inconclusive: 7.08 µM [inhibitor, single point].

Question: Which Potency does the source give for `COc1ccccc1NC(=O)c1c(C)nc2ccccc2c1C(=O)O` here?
Answer: The Potency was inconclusive: 8.91 µM [inhibitor, partial curve].

Question: Which “activity change, negative = inhibition” value does the source give for `Cc1cc(C)n(CCC(=O)N=Nc2c(O)[nH]c3ccc(Br)cc23)n1` here?
Answer: Its value is inactive: -0.781%.

Question: Which “activity change, negative = inhibition” value does the source give for `Cc1cc(=O)oc2cc(NC(=O)Cc3ccccc3)ccc12` here?
Answer: Its value is inactive: 2.86%.

Question: For `c1cn2cc(CSC3CCCCC3)nc2s1`, which “activity change, negative = inhibition” value is on record?
Answer: The value was inactive: -5.22%.

Question: With `O=C(NCc1ccco1)c1cnc2sccn2c1=O` as the molecule, how does the “activity change, negative = inhibition” value read?
Answer: The value was inactive: -5.34%.

Question: With `COC(=O)Cn1cc(/C=C/c2cc[n+](C)cc2)c2ccccc21` as the molecule, how does the Potency read?
Answer: The Potency was inconclusive: 25.1 µM [inhibitor, single point].

Question: How did the Potency turn out when `Cc1cc(C)c2c(-n3cccc3)nn(C)c2n1` was run?
Answer: Its Potency is inconclusive: 0.708 µM [inhibitor, single point].

Question: With `Nc1nnc(CSCc2ccc(F)cc2)s1` as the molecule, how does the “activity change, negative = inhibition” value read?
Answer: The value was inactive: -4.64%.

Question: `Cn1nnnc1Sc1ncnc2scc(-c3ccccc3C(F)(F)F)c12` was tested. Which Potency did it give?
Answer: The Potency was inconclusive: 28.2 µM [inhibitor, single point].

Question: `O=C(O)CCC(=O)CCC(=O)c1ccccc1` was tested. Which Potency did it give?
Answer: The Potency was inconclusive: 6.31 µM [inhibitor, single point].

Question: `CN(CCOc1ccc(Cl)cc1)C(=O)c1cc(-c2ccco2)nc2ccccc12` was tested. Which Potency did it give?
Answer: The Potency was inconclusive: 39.8 µM [inhibitor, single point].

Question: Which Potency does the source give for `COc1ccc(C(=O)CCC(=O)N2CCN(c3ccccc3)CC2)cc1` here?
Answer: The Potency was inconclusive: 8.91 µM [inhibitor, single point].

Question: Which “activity change, negative = inhibition” value does the source give for `CCCCC(=O)Nc1cccc(-c2nc3ccccc3s2)c1` here?
Answer: The value was inactive: -4.8%.

Question: With `O=C(Nc1ccccc1-c1nc2ccccc2s1)c1ccco1` as the molecule, how does the Potency read?
Answer: The Potency was inconclusive: 28.2 µM [inhibitor, single point].

Question: For `Cc1ccccc1NS(=O)(=O)c1ccc(NC(=O)CSCc2ccc(Br)cc2)cc1`, which Potency is on record?
Answer: Its Potency is inconclusive: 39.8 µM [inhibitor, single point].

Question: Which “activity change, negative = inhibition” value does the source give for `CCCc1c2c(cc3c(=O)cc(C(=O)OCC)oc13)CCCC2` here?
Answer: Its value is inactive: -5.85%.

Question: For `CCCCOCC(O)CCc1n[nH]c(=S)n1-c1ccccc1` (configuration not stated), which Potency is on record?
Answer: The Potency was inconclusive: 0.708 µM [inhibitor, single point].

Question: `CCOC(=O)c1sc(NC(=O)CSc2nnc(Cc3ccccc3)o2)c(C#N)c1C` was tested. Which Potency did it give?
Answer: Its Potency is inconclusive: 15.8 µM [inhibitor, partial curve].

Question: `CCc1nn2c(=O)cc(COc3ccc(/C=C4\C(=N)N5N=C(C)SC5=NC4=O)cc3)nc2s1` was tested. Which Potency did it give?
Answer: The Potency was inconclusive: 22.4 µM [inhibitor, single point].

Question: `O=C(CCBr)N1CCN(C(=O)CCBr)CC1` was tested. Which Potency did it give?
Answer: The Potency was inconclusive: 3.55 µM [inhibitor, full curve, poor fit].

Question: How did the Potency turn out when `Cc1ccc(-n2nnnc2CNC(=O)c2ccc([N+](=O)[O-])o2)cc1C` was run?
Answer: Its Potency is inconclusive: 1.26 µM [inhibitor, full curve, poor fit].

Question: For `CCCc1ccc2oc(C(=O)N(C)Cc3cnccn3)c(C)c2c1`, which Potency is on record?
Answer: Its Potency is inconclusive: 7.08 µM [inhibitor, single point].

Question: Which Potency does the source give for `C=CCNS(=O)(=O)c1cccc2cc(C(=O)O)c(O)cc12` here?
Answer: Its Potency is inconclusive: 22.4 µM [inhibitor, partial curve].

Question: How did the Potency turn out when `Cc1cc(O)c(/C=N/Nc2ccccc2Cl)c(=O)o1` was run?
Answer: Its Potency is inconclusive: 0.794 µM [inhibitor, partial curve, poor fit].

Question: Which “activity change, negative = inhibition” value does the source give for `O=C(CN1C(=O)CC(c2ccco2)Sc2ccccc21)Nc1ccc(OC(F)(F)F)cc1` (configuration not stated) here?
Answer: Its value is inactive: -9.03%.

Question: How did the “activity change, negative = inhibition” value turn out when `O=C1CCCC2=C1C1(CCCCC1)N=C(Nc1nc3ccccc3o1)N2` was run?
Answer: The value was inactive: -12%.

Question: With `CC(=O)c1ccc(OCCCC(=O)NC2=NCCS2)cc1` as the molecule, how does the Potency read?
Answer: The Potency was inconclusive: 0.282 µM [inhibitor, full curve, poor fit].

Question: Which Potency does the source give for `COc1ccc2c(CNCCc3ccccc3OC)c(C(=O)O)n(Cc3ccc(F)cc3Cl)c2c1` here?
Answer: The Potency was inconclusive: 31.6 µM [inhibitor, single point].

Question: For `CSc1cccc(NC(=O)N2CCN(S(=O)(=O)c3ccc4c(ccn4C)c3)CC2)c1`, which “activity change, negative = inhibition” value is on record?
Answer: The value was inactive: -16.4%.

Question: `CC(C)(CCCCCCCCCCC(C)(C)CC(=O)O)CC(=O)O` was tested. Which Potency did it give?
Answer: The Potency was inconclusive: 39.8 µM [inhibitor, single point].

Question: Which Potency does the source give for `Cc1cccc(C(=O)Nc2ccc3c(c2)nc(C)n3C)c1` here?
Answer: The Potency was inconclusive: 3.55 µM [inhibitor, single point].

Question: Which Potency does the source give for `Cc1cc(C)c2oc(C(=O)N(Cc3ccccc3)C3CCS(=O)(=O)C3)cc(=O)c2c1` (configuration not stated) here?
Answer: Its Potency is inconclusive: 31.6 µM [inhibitor, partial curve, poor fit].

Question: Which “activity change, negative = inhibition” value does the source give for `N#Cc1c(NC(=O)c2cccnc2)sc2c1CCC2` here?
Answer: The value was inactive: -5.87%.

Question: `Cc1cc(C)cc(NC(=O)c2cc3c(=O)n(Cc4ccco4)ccc3nc2C)c1` was tested. Which “activity change, negative = inhibition” value did it give?
Answer: Its value is inactive: -9.24%.

Question: Which “activity change, negative = inhibition” value does the source give for `Cc1ccc(S(=O)(=O)N2CCC(C(=O)NCCCN3CCCC3=O)CC2)cc1` here?
Answer: Its value is inactive: 1.14%.

Question: How did the “activity change, negative = inhibition” value turn out when `Cc1ccc2sc(N(CCCN(C)C)C(=O)c3nc4ccccc4s3)nc2c1C` was run?
Answer: Its value is inactive: 2.55%.

Question: With `CCC(C)Sc1cccc(-c2nc3cc(C)ccn3c2NCc2ccccc2)c1` (configuration not stated) as the molecule, how does the “activity change, negative = inhibition” value read?
Answer: Its value is inactive: -22%.
